Consider 15 sequences from a protein production outcome set (Wang et al. 2014).

A short description of the data set: label from the status in PepcDB records.
With “DEKVQNSKTRFIAVSSGKGGVGKSNIAIGLALKYSELGKKVLILDADIGMANVNILLGVIPKYSIYHMIAQSRDIREVITKTEYNIDLLAGASGTMELLDLSDVDVNKFIKELLKIYEYDIVVIDTSAGISRQVISFLLSSDDVVIVTTPEPTSITDAYGIIKVLSYKMENLKNLRLIVNRVANVSEAKGVAKKVIDISGQFLNLNIDYLGHIYEDQNIRSSVFKQKPFVLVNPNSKASYCLDSIVATLEEVSLDNRKRRGVIGFILRFF”, the protein production entry is on record as “failed”.

In the case of “EGGERRRRRREQAAGGAGGEGRSGSAGGSGGGRWRYGVESQPRQATLRWSEAVETRSTQGSTGNPGFEEGVAGPGGGEGAMLEAMAEPRPEDPPPTLKPETQPPEKRRRTIEDFNKFCSFVLAYAGYIPPSKEESDWPASGSSSPLRGESAADSDGWDSAPSDLRTIQTFVKKAKSSKRRAVQSGPTQPGPPRSTFSRLQAPDSATLLEKMKLKDSLFDLDGPKVASPLSPTSLTHTSRPPAALAPVPLSQGDLSQPRKKDRKNRKLGPGGGAGFGVLRRPRPAPGDGEKRSRIKKSKKRKLKKADRGDRLPPPGPPRAPPSDTDSEEEEEEEEEEDDEEEMTVGGGVPAPVLPTPPEAPRPPVTVHSEGAPPTDSEGKDVGSTETSQDGDASSSEGEMRVMDEDIMVESGDDSWDLITCYCRKPFAGRPMIECSLCGTWIHLSCAKIKKTNVPDFFYCQKCKELRPEARRLGGLPKSGEP”, the protein production result was “not failed”.

On to “ERLTLDTRLRQALERNELVLHYQPIVELASGRIVGGEALVRWEDPERGLVMPSAFIPAAEDTGLIVALSDWVLEACCTQLRAWQQQGRAADDLTLSVNISTRQFEGEHLTRAVDRALARSGLRPDCLELEITENVMLVMTDEVRTCLDALRARGVRLALDDFGTGYSSLSYLSQLPFHGLKIDQSFVRKIPAHPSETQIVTTILALARGLGMEVVAEGIETAQQYAFLRDRGCEFGQGNLMSTPQAADAFASLLDRQKASGQRPVHGHETAP”, for which the protein production result is listed as “not failed”.

For the sequence “LIACVANDDVFSESETRAKFESLFRTYDKDTTFQYFKSFKRVRINFSNPLSAADARLRLHKTEFLGKEMKLYFAQTLHIGSSHLAPPNPDK”, the protein production entry was “not failed”.

As to “LIDSREQYRLAVNGSNDGIWDWDMRSDTLYLSPKWKKTLGYEDDDLSNIYKTFEDLVHPEDKPVFRTYLDRYLNGEIPLFNIEFRIRHKDGAYVWILGRGEVLRDKSGSPYRMAGSMSDITGRKKDEDELKRRSAFQLVVMDLAIGFVNTPLDELDRSIERALALVGEFLQVDRSYLFRYDFANGTMSNTHEWCSEGIAPEKNNLQNLLNSIIPDWVATHLAGRIVHISSVDALDDESALKMILASQGIKTLISLPLIYHEHCFGFVGFDAVREVKKWGDDEISLLRVLAELFTNAELRFRHETALVDARYAAESANRAKSEFLANMSHEIRTPMNGVIGMA”, the protein production entry is “failed”.

With “MAAGKTFYDILGVSKSASDKEIKSAFRKLAQKYHPDAGGDEAKFKEISEAYETLSDEKKRKEYDQMLMFGGMPGAGGAYGGGYGAGAGASGWGDIFDSIFSGNGAWGSDWGSGFAGAAGAAGAGAGRSRARKGGDLSLTVDVSAEDAFRGVTHKVTYRIPSTGEQQTITVSVPAGAVDGGKLRYKRRGEYGVAGGERGDLVVTTHVEEHPLFKRKGADVTMEVPVSVYEAALGCTVDVPTPGGATVRLKVPAGTQTGKKFRFKEMGAPDVKHRGRTGALLVEIKVQVPTNLSDDERDAMTKLREADTRDYREKVNRYKATY”, the protein production result was “failed”.

In the case of “MAFISSGYNPEKPMANRITDIGPRKFDEFFPPVIAKNFGSWLYHEILEPGVLMHVAESGDKVYTVRVGAARLMSITHIREMCDIADKYCGGHLRFTTRNNVEFMVADEASLKALKEDLASRKFDGGSLKFPIGGTGAGVSNIVHTQGWVHCHTPATDASGPVKAIMDEVFEDFQSMRLPAPVRISLACCINMCGAVHCSDIGVVGIHRKPPMIDHEWTDQLCEIPLAVASCPTAAVRPTKLEIGDKKVNTIAIKNERCMYCGNCYTMCPALPISDGEGDGVVIMVGGKVSNRISMPKFSKVVVAYIPNEPPRWPSLTKTIKHIIEVYSANAYKYERLGEWAERIGWERFFSLTGLEFSHHLIDDFRDPAYYTWRQSTQFKFLEHHHHHH”, the protein production result is “failed”.

For the sequence “MAITVASSRLGTAPFSNAAPVELRPDGDRDQVQAVIRAVYRQVLGNDYIMKSERLTAAESLLVNGSISVRDFVRAVAKSELYKTKFFYNNFQTRVIELHCKHLLGRAPYSEAEVIEHLDRYETQGYDADVDSYIDSSEYLETFGESIVPYYRDIEYHVGQQSVGLPRLFSLYRGYATSDRTSLGGNNSRLAANLAAKSVAPVVAPSVGTNYVASTKGEAPMRALGGSTPFGQTASRIFRVEIAAISKPGFPSVRRSNRSLLVPYEQLNNTLQQVNRSGGRVVSVAPASL”, the protein production entry is recorded as “failed”.

As to “MEEKDWEASSSSENEGGFPNDDDEEFHSGGSVPKLQFRVGSSKARWITELGMAEVEVKRGKLWTTTGIIRSGKTYCFIEEALYLSEIGELQILGNEDDIVIPLKDLYEKIAEEKSVALGKTTRHGVSWTLKDAARPNGEEESACAGECPADNDTVTKLLGDMQICDAKAVFDVYLPNSRFKKSSPGEPSFVACFSGDSPPSKEDIKVLQKRIAAPLTFCHIAQGRASFFSFSSIDLPVLS”, the protein production entry was “failed”.

For the sequence “MERTQIFDLMGELKLYGMKAAFDEIMATAVKRQHEPQRIVGDLLSAEINEKQARSIKYQLTIAKLPLAKDIADFQFDGTPINQTLVNDLAGGGFVAQQRNVVLVGGTGTGKTHLAIAIARSCIRSGARGRFFNVVDLVNRLETETRNGRQGRLAEHLTRMDFIVLDELGYLPFAQSGGQLLFHLVSRLYERASVIVTTNLAFGEWPSVFGDAKMTTALLDRLTHHCDIVETGNDSWRFKSRDDDHATRARLASAIPASSDETSATSKPRRGKGSKLDADEGSNLQAD”, the protein production entry is recorded as “failed”.

In the case of “MGKIMPVSNTKPSLQRQIKTMIRSSVQTAQKLPLRLILVVPFVLQIFTAVSLVGYLSFKNGQKAVNELADQLIVKVNGLVDQHLDSYLAAPLQINQINVDATNLGMLNLENFQTTGRYFWQQMQVFNVGYISFANLQGEFIGVERLDKGGLLINEVSQKNGIGKLYVYTTNNQGDRQQLIAVKDYDPHVEAWYADAVKAGKPVWSQIYSWEDKPEVLSISASYPINDNNNKFFGVISVDLILSQINSFLANLKVGQTGQIFILERSGMIVASSTSEAPYKVISGKAQRLSAHQSQNYLLRETTDYLQQKFGQLKNVKSYQQTVLQLQHERHFVQVRPWNDKLGLDWLVIVVVPESDFMGQINTNNRTTILLCLWALIIATAMGVYTSRWIARPIVQLTQASSAIASGNLDQEVRVSGLKELSTLATSFNQMAGQLRDSFAELEKTNQELENRVAERTAEITAAKEVADAANRAKSEFLANMSHELRTPLNGILGYAQILQLDSNTNDEQMQGLNTIYECGSHLLTLINDILDIAKIEAKKLELYPQEFDLGRLLLGVCEMCHIKVEQKGISFKYQFNDYIPSKTFADEKRIRQVLINILSNAIKFTDNGTVTFDVEVVACTGTKLITNTNQILPVHQLRFQIEDTGIGMTDEQLKKIFLPFEQVGDNLHKSEGTGLGLAISSQILELMGSDIKVESVYGKGTKFWFDLDLPIIDTGKISLSVESQKNIIGYEGKTKSILIIDSSWEKRDIFANLLSSLGFKLTEVSNLQESLDKIKAEHPDLIIADIAMPEINNLQATTMMRSQVEFAKLVIIASSASVSEYTRQQSQEAGYDDFLAKPVKVEDLFNMLQTYLSLKWIYSPNDDSSAKISSIEEIIFPPPTELVNLYQAAKAGYVVGIQEEITRIQQLDKKYTRFTVKVSELIAEFEDEAIVSMIQPHLSY”, the protein production entry is given as “failed”.

For the sequence “MGKKKKRATEKVWCYYCDREFDDEKILVQHQKAKHFKCHVCHKKLSTASGMVIHVLQVHKENVTKVPNAKDGRDSTDIEIYGMQGIPPHVLTAHYGEEEDEPPAKVAKVEIPSAPLGGVVPRPYGMVYPPQQVPGAVPARPMYYPGPPMRHPAPVWQMPPPRPQQWYPQNPALSVPPAAHLGYRPQPLFPVQNMGMTPTPTSAPAIQPSPVTGVTPPGIPTSSPAMPVPQPLFPVVNNSIPSQAPPFSAPLPVGGAQQPSHADALGSADAYPPNNSIPGSIPSGTNAHSYASGPNTSGPSIGPPPVIANKAPSNQPNEVYLVWDDEAMSMEERRMSLPKYKVHDETSQLAIVGSEKHSMNSINAAIDRRISESRLAGRMAF”, the protein production result is on record as “failed”.

In the case of “MGPRASLSRLRELCGHWLRPALHTKKQILELLVLEQFLSVLPPHLLGRLQGQPLRDGEEVVLLLEGIHREPSHAGPLDFSCNAGKSCPRADVTLEEKGCASQVPSHSPKKELPAEEPSVLGPSDEPPRPQPRAAQPAEPGQWRLPPSSKQPLSPGPQKTFQALQESSPQGPSPWPEESSRDQELAAVLECLTFEDVPENKAWPAHPLGFGSRTPDKEEFKQEEPKGAAWPTPILAESQADSPGVPGEPCAQSLGRGAAASGPGEDGSLLGSSEILEVKVAEGVPEPNPELQFICADCGVSFPQLSRLKAHQLRSHPAGRSFLCLCCGKSFGRSSILKLHMRTHTDERPHACHLCGHRFRQSSHLSKHLLTHSSEPAFLCAECGRGFQRRASLVQHLLAHAQDQKPPCAPESKAEAPPLTDVLCSHCGQSFQRRSSLKRHLRIHARDKDRRSSEGSGSRRRDSDRRPFVCSDCGKAFRRSEHLVAHRRVHTGERPFSCQACGRSFTQSSQLVSHQRVHTGEKPYACPQCGKRFVRRASLARHLLTHGGPRPHHCTQCGKSFGQTQDLARHQRSHTGEKPCRCSECGEGFSQSAHLARHQRIHTGEKPHACDTCGHRFRNSSNLARHRRSHTGERPYSCQTCGRSFRRNAHLRRHLATHAEPGQEQAEPPQECVECGKSFSRSCNLLRHLLVHTGARPYSCTQCGRSFSRNSHLLRHLRTHARETLY”, the protein production result is listed as “not failed”.

For the sequence “MIFQNVCRNESNFNAIASESRSQTQFGVSKSSSSGGGCISARTKDRHTKVNGRSRRVTMPALAAARIFQLTRELGHKTEGETIEWLLSQAEPSIIAATGYGTKLISNWVDVAADDSSSSSSMTSPQTQTQTPQSPSCRLDLCQPIGIQYPVNGYSHMPFTAMLLEPMTTTAESEVEIAEEEERRRRHH”, the protein production result is given as “failed”.

Regarding “MKQISSGEVWRWNKEVEMNSIRDCLKHCSSIAIDTEFPGCLKETPMDASEEIRYRDMKFNVDNTHLIQLGFTLFDRRGFAKTWEINLSDFDEHKCFKNDKSIAFLKSNGLNLDKIREEGIGIDEFFRDFSQILTEKDGKITWVNFQGSYDNAYLVKGLTGGKPLPETKEEFHETVQQLLGKFVFDVKKIAESCSGLSSQFGLQRIADVLQMKRVGKAHHAGSDSELTARVFTKLTFDLLNSRKQSVRRVDHQQFQLEQQQHQQFMMTRCYIPIPMPIPRPRPVMFAAHHQNPYFGGGYFRMPVQGMNYVL”, the protein production result is recorded as “failed”.
